Results as given in the RNAGym collection of RNA variant scans (doi:10.1126/science.aae0568).
Variants at the floor of the assay are shown more often than the library holds them.

B1: tRNA (parent)
chain: GUUCCGUUGGCGUAAUGGUAACGCGUCUCCCUCCUAAGGAGAAGACUGCGGGUUCGAGUCCCGUACGGAACG

Variants of: B1
Assay: yeast fitness relative to wild type (ratio to wild type); higher = fitter; tRNA-Arg(CCU), competitive growth, 37 C, YPD
In short: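 The tRNA-Arg(CCU) gene variants were made by chemical synthesis with a 3% per-site mutation rate at 69 sites and inserted at the native genomic locus of Saccharomyces cerevisiae. After pooling, the strains were competed in YPD at 37°C for 24 hours in six parallel replicates. Gene amplicons from the start population and each end population were read by 100-nucleotide paired-end sequencing, and Darwinian fitness relative to wild type was taken from genotype frequency changes. Genotypes needed ≥ 100 starting reads, and estimates < 0.5 were set to 0.5.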

Yeast fitness, 0.573:
GUUCCGUUGGCGUAAUGGUAACGCGUCUCCCUCCUAAGGAGAAGACUGCGGGUUCGCGUCCCGUGCGGAACG

Yeast fitness, ≤ 0.5:
GUUCCCUUGGUGUAAUGGUACCGCGUCUCCCUCCUAAGGAGAAGAGUGCGGGUUCGAGUCCCGUGCGGAACG
GUUCCGUUGGCGUGAUGGUAACGCAUCUCACUCCUAAGGAGAAGACUGCAGGUUUGAGUCCCGUACGGAACG
GAUCGGUUGGCGUGAUGGUAACGCGUCUCGCUCCUAAGGAGAAGACUGCGGGUUCGAGUCCCGUACGGAACG
GUUCCGUUGGCGUAAUGGUAACGCGUCUCCCUCCUAACGAGAAGCCUGCGGCUUCGAGUCUCGUACGGAACG
GUUCCGUAGGCGUAAUGGUAACGCGUCUCCCUCUUAAGGAGAAGACUGUGGGUUCGAGUUCCGUACGGAACG
GUUCCGUUGGCGUAAUGAUACCGCGUCUCUCUCCUAAGGAGAAGGCUGCGGGUUCGAGUCCCGUACGGAACG
GUUCCGUUGGCGUAAUGGUAACGCGUCUCCCUCCUAAGGAGAAGACUGCGGGUACGAGUCCCGAAGGGAACG
GUUCCGUUGGCGUAAUGGUAACGCGUCAGCCUCCUAAGGAGAAGACUGCGAGUUCAAGUCCCGUACGAAACG
GUUCCGUUGGCGUAAUGGUAACGUGUCUCCCUCCUGAGGAGACAACUGCGGGUUCGAGUCCCGUAUGGAACG
GUUCCGAUGGCAUCAUGGUAACGCAUCUCCCUCCUAAGGAGAAGACUGCGGGUUCGAGUCCCGUACGGAACG
GUUCCCUUAGCGUAAUGGUAUCGCGUCGCCCUCUUAAGGAGAAGCCUGCGGGUUCGAGUCCCGUACGGAACG
GUUCCGUUGGCGUAAUGGUAACGCGUCUCUCUCCUAAGGAGAAGACUACGCGUUCGAGUCCCGUACGGAACG
GUUCCGUUGGCGUAAUGGUAACGCGUCUCCCUCCUAAGGUGAUGACUGCGGGUUCGAGUUCUGUAUGGAACG
GUUCCGUUAGCGUAACGGUCACGCGUGUCCCUCCUAAGGAGAAGUCUGCGGGUUUGAGUCCCGUACGGAACG
GUUCUGUUGGCGUAAUGAUAACGCGUCUGCCUCCUACGGAGAAGACUGCGGGUUCGAGUCCCGUACGGAACG
GUUCCGUUGGGGUGUUGGUAACCCGUCUCCCUCCUAAGGAGAAGACUGCGGGUUCGAGUCCCGUACGGAACG
GUUCCGUUGGCGUUAUGGUAACGAGUCUCCCUGCUAAGGAGAAGACUGGGGGUUCGAGUCCCGUGCGGAACG
GGUCCGUUGGCGUAAUGGUAACGCGUCACCCUCCUAAGGAGAAGACUGCGGGUUCGAGUCCGGUACGGAACG
GUUCCGUUAGCGUAAUGGUAACGCGUGUCCUUCCUAAGGAGAAGACUGCGGGUUCGAGUCCCGUACGGCACG
GUUCCGUUGGCGUAAUGCUAAUGCGUCUCCCUCCUAAGGAGAAGACUGCGGGUUCGGGUCCCGUACGGAACG
GUUAUGUUGGCGUAAUGGUAACGCGUCUCCCUCUUAAGGAGAAGACUGCGGGUUCGAGUCCCGUAUGGAACG
GUUCCGUUGGCGUAAUGGUAUCGCGUCUCCCUUCUAAGGAGGACACUGCGGGUUCGAGUCCCGUACGGAACG
GUUCCGUUGGCGUAAUGGUAACGGGUCUCACUCCUAAGGAGAAGACUGCGGGUUCGAGUGCCGUACGGAACG
GUUCCGUUGGCGUAAUGGUAACUCGUCUCCCUCCUCAGGAGAAGAUUGCCGGUUCGAGUCCCGUACGGAACG
GUUCCGAUGGCGUAAUGGUAACGCGUCUCCCUCCUAAGGAGAAGACAGCGGGUUCGAAUCCCGUACGGAACG
GUUCCGUUGGCGUAAUGGUAACGUGUCUCCCUCCUAAGGAGAAGACUGCCGGUUCCAGUCCCGUACGGAACG
GUUUCGUUGGCGUAAUGGUAACGCGUAUCCCUCCUAAGGCGAAGACUGCGGGUUCGAGUCCCGUCCGGAACG
GUUCCGUUGCCGCAAUGGUAGCGCGUCUCCCUCCUAAGGGGAAGACUGCGGGUUCGAGUCCCGUACGGAACG
GUUUCGUUGCCGUAAUGGUAACGCGUCUCCCUCCUAAGGAGAAGACUCCGGGUUCGAGUCCCCUACAGAACG
GUUCCGUUCGCGUAAUGGUAGCGCGUCUCCCUCCUAAGGAGAACACCGCGGGUUCGAGUCCCGUACGGAUCG
GUUCCGUUGGCGGAAUGGUAACGCGACUCCCUCCUAAGGAGAAAAUUGCGGGUUCGAGUCCGGUACGGAACG

Yeast fitness, 0.727:
GCUCCGUUGGCGUAAUGGUAACGCGUCUCCCUCCUAAGGAGAAGACUGCGGGUUCCAGUCCCGUACGGAACG

Yeast fitness, 0.663:
GUUCCGUUGGCGUAAAGGUAACGCGUCUCCCUCUUAAGGAGAAGACUGCGGGUUCGAGUCCCGUACGGAACG

Yeast fitness, 0.609:
GUUCCGUUGGCGUAAUGGUAACGCGCCUCCCUUCUAAGGAGAAGACUGCGGCUUCGAGUCCCGUACGGAACG

Yeast fitness, 0.553:
GUACCGUUGGCGUAAUGGUAACGCGUCUCUCUCCUAAGGAGAAGACUGCGGGUUCGAGUCCCGUACAGAACG

Yeast fitness, 1.04:
GUCCCGUUGGCGUAAUGGUAACGCGUCUCCCUCCUAAGGAGACGACUGCGGGUUCGAGUCCCGUACGGAACG

Yeast fitness, 0.667:
GUUCCGUUGGCGUAAUGGUAACGCGUCUCCUCUCUAAGGAGAAGACUGCGGGUUCGAGUCCCGUACGGAACG
